Measurements: the supplement of paper PMC9015667
Structures can show the parent of a compound that is named as a salt. The list shows a part of the results. Most values come without repeats; read them as rough.

Test system: M238P (parental melanoma line)
Test: reduction in cell viability relative to untreated/vehicle; higher = more growth inhibition
Settings: 200 nM; 72 h

SMILES | reduction in cell viability [%]
Nc1ccccc1NC(=O)c1ccc(CNc2nccc(-c3cccnc3)n2)cc1 [Mocetinostat] | 36.2
O=C1c2c(O)cc(O)cc2OC(c2ccc(O)c(O)c2)C1O (centres undefined) [Taxifolin] | < 0
CS(=O)(=O)Oc1ccc2c(NC(N)=O)c(C(=O)c3ccc(Cl)cc3Cl)oc2c1 [Lirimilast] | < 0
CC1CNc2c(cccc2S(=O)(=O)N[C@@H](CCCNC(=N)N)C(=O)N2CC[C@@H](C)C[C@@H]2C(=O)O)C1 (some centres undefined) [Argatroban] | < 0
NC(=O)c1ncn([C@@H]2O[C@H](CO)[C@@H](O)[C@H]2O)n1 [Ribavirin] | < 0
CC(C)C[C@H](NC(=O)[C@@H](O)[C@H](N)Cc1ccccc1)C(=O)O [Ubenimex] | < 0
O=C(NCc1ccccc1)[C@H](Cc1ccccc1)NC(=O)[C@H]1O[C@@H]1C(=O)NCCc1ccc(O)cc1 | < 0
Cc1c(C(=O)NN2CCCCC2)nn(-c2ccc(Cl)cc2Cl)c1-c1ccc(Cl)cc1 [Rimonabant] | < 0
CC1(C)NC(=O)N(c2ccc([N+](=O)[O-])c(C(F)(F)F)c2)C1=O [Nilutamide] | < 0
Cc1csc(-c2nnc(Nc3ccc(Oc4ncccc4-c4ccnc(N)n4)cc3)c3ccccc23)c1 | 28.9
c1cc(-c2sc(-c3ccncc3)c(-c3ccncc3)c2-c2ccncc2)ccn1 | < 0
c1ccc(CNc2nc(NCc3ccccc3)c3ccccc3n2)cc1 | < 0
O=C1NC(=O)/C(=C/c2ccc(-c3ccc(F)cc3O)o2)S1 | < 0
CC(=O)OCC(=O)[C@@]12N=C(C)O[C@@H]1C[C@H]1[C@@H]3CCC4=CC(=O)C=C[C@]4(C)[C@H]3[C@@H](O)C[C@@]12C [Deflazacort] | < 0
CN(N=O)C(=O)N[C@@H](C=O)[C@@H](O)[C@H](O)[C@H](O)CO [Streptozocin] | < 0
C=CC(=O)Nc1cccc(Oc2nc(Nc3ccc(N4CCN(C)CC4)cc3OC)ncc2Cl)c1 | < 0
COc1c(C)c2c(c(O)c1C/C=C(\C)CCC(=O)OCCN1CCOCC1)C(=O)OC2 [Mycophenolate mofetil] | < 0
CN1C(=O)C[C@@H](C(=O)N[C@@H](Cc2c[nH]cn2)C(=O)N2CCC[C@H]2C(N)=O)NC1=O [Taltirelin] | < 0
CCC(C)N(C)C(=O)c1cc2ccccc2c(-c2ccccc2Cl)n1 (centres undefined) | < 0
COc1cccc(-c2ccc(NC(=O)C3=C(C(=O)O)CCC3)c(F)c2)c1 [Vidofludimus] | < 0

SMILES | reduction in cell viability [%]
CCOCC(O)COc1ccc(NC(=O)CC[S+](C)C)cc1 (centres undefined) [Suplatast tosilate] | < 0
CCN(C(=O)c1c(O)c2c(Cl)cccc2n(C)c1=O)c1ccccc1 [Laquinimod] | < 0
CC[C@H]1OC(=O)[C@H](C)[C@@H](O[C@H]2C[C@@](C)(OC)[C@@H](O)[C@H](C)O2)[C@H](C)[C@@H](O[C@@H]2O[C@H](C)C[C@H](N(C)C)[C@H]2O)[C@](C)(O)C[C@@H](C)C(=O)[C@H](C)[C@@H](O)[C@]1(C)O [Erythromycin] | < 0
CN(C)Cc1cccc(N=C(c2ccccc2)c2c(O)[nH]c3cc(C(=O)N(C)C)ccc23)c1 | < 0
COc1ccc(-c2ccc3ncc4c(c3c2)n(-c2ccc(N3CCNCC3)c(C(F)(F)F)c2)c(=O)n4C)cn1 | 90.4
COc1c(OCCCN2CCOCC2)ccc2c1N=C(NC(=O)c1cnc(N)nc1)N1CCN=C21 | 8.93
COc1cc(C(=O)NC2CCN(C)CC2)ccc1Nc1ncc2c(n1)N(C1CCCC1)CCC(=O)N2C(C)C | < 0
CN1CCC(=C2c3ccccc3C=Cc3ccccc32)CC1 [Cyproheptadine hydrochloride] | < 0
CC[C@@]1(O)C(=O)OCc2c1cc1n(c2=O)Cc2cc3cc(O)ccc3nc2-1 [10-hydroxycamptothecin] | 77
Nc1nc(-c2nn(Cc3ccccc3F)c3ncccc23)nc(N)c1N1CCOCC1 | < 0
CS(=O)(=O)Nc1ccc([N+](=O)[O-])cc1Oc1ccccc1 [Nimesulide] | < 0
CC(C)[N+]1(C)[C@@H]2CC[C@H]1C[C@@H](OC(=O)C(CO)c1ccccc1)C2 (some centres undefined) [Ipratropium bromide hydrate] | < 0
CCCCCNC(=N)N/N=C/c1c[nH]c2ccc(OC)cc12 [Tegaserod maleate] | < 0
COc1ccc2c(c1)c(CC(=O)O)c(C)n2C(=O)c1ccc(Cl)cc1 [Indomethacin] | < 0
C[C@H](NC(=O)c1sccc1OCc1ccc(Cl)cc1)c1ccccc1 | < 0
CN(C)CCN1C(=O)c2cccc3cc(N)cc(c23)C1=O [Amonafide] | < 0
CCCn1c(=O)c2nc(C34CC5CC(CC3C5)C4)[nH]c2n(CCC)c1=O [Rolofylline] | < 0
CNC(C)C1CCC(N)C(OC2C(N)CC(N)C(OC3OCC(C)(O)C(NC)C3O)C2O)O1 (centres undefined) [Gentamycin sulfate] | < 0
CCCCCCNC(=O)n1cc(F)c(=O)[nH]c1=O [Carmofur] | < 0

Taken from the entries so far for reference:
SMILES | reduction in cell viability [%]
CS(=O)(=O)Oc1ccc2c(NC(N)=O)c(C(=O)c3ccc(Cl)cc3Cl)oc2c1 [Lirimilast] | < 0
CC1CNc2c(cccc2S(=O)(=O)N[C@@H](CCCNC(=N)N)C(=O)N2CC[C@@H](C)C[C@@H]2C(=O)O)C1 (some centres undefined) [Argatroban] | < 0
NC(=O)c1ncn([C@@H]2O[C@H](CO)[C@@H](O)[C@H]2O)n1 [Ribavirin] | < 0
